{
  "source": "patent US20040010021A1",
  "about": "“Pharmaceutical compositions for the treatment of depression or symptoms suggesting depression” (priority 2000, published 2004)",
  "origin": "cited, not measured here",
  "system": "patients",
  "conditions": "Robins et al.; cited from earlier work",
  "note": "At least one structure is not confirmed: it was looked up by name or label, or the drawing left a doubt.",
  "data": [
    {"compound": "CNC(=C[N+](=O)[O-])NCCSCc1ccc(CN(C)C)o1", "note": "[ranitidine]", "values": [
      {"measurement": "mood of patients versus control-group receiving placebo (literature)", "result": "improved at a higher rate"}
    ]}
  ]
}
